According to patent EP3501511A1, “MEANS FOR PREVENTING AND TREATING BRAIN METASTASIS” (Fundación Centro Nacional De Investigaciones Oncológicas …, priority 2017, dated 2019):
At least one compound was matched to its structure with a doubt left.

What was measured:
[1] = tested on: established brain metastasis (B16/F10-BrM, H2030-BrM, 482N1); test: Brain organotypic slice cultures with established metastases treated with silibinin; format: cell-based, mouse; settings: silibinin 100 µM, three days ex vivo
BrM cell lines = test: In vitro treatment of BrM cell lines with silibinin; format: cell-based; settings: cell lines treated in vitro

COc1cc(C2Oc3cc([C@H]4Oc5cc(O)cc(O)c5C(=O)[C@@H]4O)ccc3OC2CO)ccc1O (stereo partly drawn) [silibinin]
Stat3 activity in the microenvironment surrounding established brain metastasis [1]: decreased Stat3 activity
bioluminescence of established brain metastasis vs controls [1]: lower values of bioluminescence than controls
sensitivity of BrM cell lines to silibinin in vitro (BrM cell lines): not sensitive to silibinin
